Laboratory results published in PMC10606770.
Results are given in words; binding and its absence hold for the method and conditions named. In cells and extracts the contact can be indirect. Binding can be weak; no strength is given. One block for each molecule: values may come before it.

Experiments:
[1] = biological target: T1, Ubiquitin-specific protease 53 (USP53) (mouse (endogenous in mouse brain)) (UniProt P15975); experiment: co-IP; synaptosomes (P2) from whole mouse brain in Syn-PER reagent and co-IP buffer (150 mM NaCl, 10 mM Tris-HCl pH 7.4, 1 mM EDTA, 1 mM EGTA, Triton X-100 1%, NP-40 0.5%), on ice and at 4 °C; 2.88 µg primary antibody, Protein A magnetic beads; Western blot
T1 sequence: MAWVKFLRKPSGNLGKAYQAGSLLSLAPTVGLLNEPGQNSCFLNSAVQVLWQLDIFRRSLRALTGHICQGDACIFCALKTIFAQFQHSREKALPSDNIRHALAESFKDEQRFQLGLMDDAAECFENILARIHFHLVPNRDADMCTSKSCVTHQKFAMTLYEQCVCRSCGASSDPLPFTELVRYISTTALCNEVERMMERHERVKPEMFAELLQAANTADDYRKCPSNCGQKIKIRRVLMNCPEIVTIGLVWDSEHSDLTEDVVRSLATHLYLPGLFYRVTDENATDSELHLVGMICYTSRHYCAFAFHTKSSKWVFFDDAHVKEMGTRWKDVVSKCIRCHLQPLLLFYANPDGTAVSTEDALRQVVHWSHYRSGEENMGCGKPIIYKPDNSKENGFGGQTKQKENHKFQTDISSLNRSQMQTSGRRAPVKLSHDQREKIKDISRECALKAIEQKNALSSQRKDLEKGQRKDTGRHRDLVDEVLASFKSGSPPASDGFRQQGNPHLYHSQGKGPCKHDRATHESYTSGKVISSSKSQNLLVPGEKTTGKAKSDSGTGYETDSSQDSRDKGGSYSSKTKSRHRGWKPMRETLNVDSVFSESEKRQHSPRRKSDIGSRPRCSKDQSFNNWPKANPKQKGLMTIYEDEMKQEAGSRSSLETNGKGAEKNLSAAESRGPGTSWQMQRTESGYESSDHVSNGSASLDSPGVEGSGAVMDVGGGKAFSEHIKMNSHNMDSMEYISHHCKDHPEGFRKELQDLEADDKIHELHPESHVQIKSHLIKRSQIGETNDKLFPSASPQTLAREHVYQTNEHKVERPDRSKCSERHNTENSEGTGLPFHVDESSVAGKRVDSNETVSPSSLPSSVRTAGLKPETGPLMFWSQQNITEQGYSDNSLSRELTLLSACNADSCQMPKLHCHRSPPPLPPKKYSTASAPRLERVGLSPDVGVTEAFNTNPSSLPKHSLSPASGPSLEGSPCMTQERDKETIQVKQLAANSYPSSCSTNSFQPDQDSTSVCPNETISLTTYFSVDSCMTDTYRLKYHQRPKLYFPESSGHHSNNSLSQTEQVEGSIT

[2] = biological target: Glutamate receptor interacting protein 2 (GRIP2) (mouse (endogenous in mouse brain)); experiment: as above

- binding [1]: binds
Molecule: Glutamate receptor interacting protein 2 (GRIP2) (mouse (endogenous in mouse brain))

- binding [2]: binds
B1: Ubiquitin-specific protease 53 (USP53) (protein, UniProt P15975 1-1069)
chain: T1 sequence
